Measured values as given in article PMC2856662.
No constants are given. Whether binding was seen depends on the method and setting. Binding seen in cells or lysates may run through a third protein. Some entries that bind do so weakly or less than the wild type.

Protein sequences, listed by entry. Tags and fused reporters are not part of them.
UniProt P61073: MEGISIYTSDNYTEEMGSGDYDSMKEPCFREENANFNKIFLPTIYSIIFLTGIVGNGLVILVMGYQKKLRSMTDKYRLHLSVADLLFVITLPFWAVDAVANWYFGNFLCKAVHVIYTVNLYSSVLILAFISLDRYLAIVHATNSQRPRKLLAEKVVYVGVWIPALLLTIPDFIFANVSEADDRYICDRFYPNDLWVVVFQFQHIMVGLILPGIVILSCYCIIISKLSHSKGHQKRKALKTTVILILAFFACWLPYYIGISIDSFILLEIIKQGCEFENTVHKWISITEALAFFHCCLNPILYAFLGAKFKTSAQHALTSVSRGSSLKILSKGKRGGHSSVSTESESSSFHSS
UniProt P25025: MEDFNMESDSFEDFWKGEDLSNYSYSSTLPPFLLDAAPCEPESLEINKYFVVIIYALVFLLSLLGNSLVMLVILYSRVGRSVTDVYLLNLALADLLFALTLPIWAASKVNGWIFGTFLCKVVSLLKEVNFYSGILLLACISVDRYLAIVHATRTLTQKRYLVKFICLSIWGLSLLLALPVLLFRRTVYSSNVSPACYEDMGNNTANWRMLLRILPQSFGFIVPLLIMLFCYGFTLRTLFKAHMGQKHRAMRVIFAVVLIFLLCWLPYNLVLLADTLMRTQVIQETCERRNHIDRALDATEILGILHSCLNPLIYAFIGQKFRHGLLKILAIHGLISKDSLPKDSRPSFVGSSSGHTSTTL

Columns and labels:
[1] = target: HA-tagged CXCR4 (stably expressed in HEK-293) (human) (UniProt P61073); test: co-IP; lysates of 293-HA-CXCR4 cells, vehicle (0 min) or CXCL12 for 5, 10, 20 and 30 min; mouse anti-HA antibody cross-linked to Protein A/G Sepharose; blot for endogenous LASP-1
[2] = target: CXCR2 (human chemokine receptor, stably expressed) (human) (UniProt P25025); test: co-IP; lysates of dHL-60 CXCR2 cells, vehicle (0 min) or 100 ng/ml CXCL8 for 1, 2 and 5 min; mouse anti-CXCR2 antibody pre-bound to Protein A/G Sepharose; blot for endogenous LASP-1
[3] = target: CXCR2 (human chemokine receptor, stably expressed) (human) (UniProt P25025); test: co-IP; lysates of 293-CXCR2 cells, vehicle (0 min) or 100 ng/ml CXCL8 for 5, 10, 20 and 30 min; mouse anti-CXCR2 antibody pre-bound to Protein A/G Sepharose; blot for endogenous LASP-1
[4] = target: CXCR2 (human chemokine receptor, stably expressed) (human) (UniProt P25025); test: co-IP; lysates (1.5 mg) of 293-CXCR2 cells transiently over-expressing HA-LIM-LIM-CAAX, vehicle (0 min) or 100 ng/ml CXCL8 for 5 and 10 min; mouse anti-CXCR2 antibody pre-bound to Protein A/G Sepharose; blots for LIM-LIM-CAAX and endogenous LASP-1

binding [1]: binds | binding [2]: binds | binding [3]: binds | binding [4]: binds
B1: LIM and SH3 protein 1 (LASP-1), endogenous (protein, UniProt Q14847 1-261)
chain: MNPNCARCGKIVYPTEKVNCLDKFWHKACFHCETCKMTLNMKNYKGYEKKPYCNAHYPKQSFTMVADTPENLRLKQQSELQSQVRYKEEFEKNKGKGFSVVADTPELQRIKKTQDQISNIKYHEEFEKSRMGPSGGEGMEPERRDSQDGSSYRRPLEQQQPHHIPTSAPVYQQPQQQPVAQSYGGYKEPAAPVSIQRSAPGGGGKRYRAVYDYSAADEDEVSFQDGDTIVNVQQIDDGWMYGTVERTGDTGMLPANYVEAI
